These are yes or no findings as the source states them, for the method shown. In cells and extracts the contact can be indirect. Binding calls can cover weak binding; strength is not graded here.
Target: protein binding domain (PBD) of the ARF6 effector protein GGA3 (UniProt Q9NZ52)
Experiment: pull-down

## ARF6, GTP-bound form (from UniProt P62331 1-175)
  binding: binds
